## Results from one PubChem assay

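Malaria parasite (P. falciparum) lines kept in red blood cells; parasite DNA is measured by SYBR Green fluorescence after lysis, 72 h after compound addition. Each compound was titrated across a series from about 0.000037 to 29 µM. The number is the fitted AC50, the concentration giving a half-maximal change in signal; a lower value means higher potency, whether the curve shows a decrease or an increase. Calls follow the curve class and fit quality: every row here is inconclusive, covering signal-raising curves and weak, poorly fitted, partial or highest-dose-only inhibition curves.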

Values are in nM. All entries here are filed as inconclusive. Only part of the assay is shown, chiefly results filed as inconclusive. A potency from a partial, single-point or poor curve is only a rough figure.

Compound | tested on / at | fitted potency (nM) | remark
O=C1CC2OCC=C3CN4CC[C@]56c7ccccc7N1C5C2[C@H]3C[C@H]46 (stereo partly drawn) | N140 | 15848 | inhibitor, single point
O=C1CC2OCC=C3CN4CC[C@]56c7ccccc7N1C5C2[C@H]3C[C@H]46 (stereo partly drawn) | CP297 | 11995 | inhibitor, partial curve, poor fit
O=C1CC2OCC=C3CN4CC[C@]56c7ccccc7N1C5C2[C@H]3C[C@H]46 (stereo partly drawn) | CP266 | 13459 | inhibitor, single point
O=C1CC2OCC=C3CN4CC[C@]56c7ccccc7N1C5C2[C@H]3C[C@H]46 (stereo partly drawn) | P93_24 | 4467 | inhibitor, partial curve
O=C1CC2OCC=C3CN4CC[C@]56c7ccccc7N1C5C2[C@H]3C[C@H]46 (stereo partly drawn) | CP217 | 12589 | inhibitor, single point
O=C1CC2OCC=C3CN4CC[C@]56c7ccccc7N1C5C2[C@H]3C[C@H]46 (stereo partly drawn) | DIV14 | 21331 | inhibitor, partial curve, poor fit
O=C1CC2OCC=C3CN4CC[C@]56c7ccccc7N1C5C2[C@H]3C[C@H]46 (stereo partly drawn) | CP305 | 13459 | inhibitor, single point
O=C1CC2OCC=C3CN4CC[C@]56c7ccccc7N1C5C2[C@H]3C[C@H]46 (stereo partly drawn) | CP286 | 11220 | inhibitor, partial curve
O=C1CC2OCC=C3CN4CC[C@]56c7ccccc7N1C5C2[C@H]3C[C@H]46 (stereo partly drawn) | AS120 | 11220 | inhibitor, single point
O=C1CC2OCC=C3CN4CC[C@]56c7ccccc7N1C5C2[C@H]3C[C@H]46 (stereo partly drawn) | GB4 | 7569 | inhibitor, partial curve
C=C(CC)C(=O)c1ccc(OCC(=O)O)c(Cl)c1Cl | CP194 | 11995 | inhibitor, single point
C=C(CC)C(=O)c1ccc(OCC(=O)O)c(Cl)c1Cl | FAB9 | 14125 | inhibitor, single point
C=C(CC)C(=O)c1ccc(OCC(=O)O)c(Cl)c1Cl | P94_40 | 12589 | inhibitor, single point
C=C(CC)C(=O)c1ccc(OCC(=O)O)c(Cl)c1Cl | AA1029 | 10000 | inhibitor, single point
C=C(CC)C(=O)c1ccc(OCC(=O)O)c(Cl)c1Cl | PC49 | 10000 | inhibitor, partial curve
C=C(CC)C(=O)c1ccc(OCC(=O)O)c(Cl)c1Cl | GB4 | 15101 | inhibitor, partial curve, poor fit
C=C(CC)C(=O)c1ccc(OCC(=O)O)c(Cl)c1Cl | CP315 | 19011 | inhibitor, single point
C=C(CC)C(=O)c1ccc(OCC(=O)O)c(Cl)c1Cl | P93_24 | 12589 | inhibitor, partial curve
C=C(CC)C(=O)c1ccc(OCC(=O)O)c(Cl)c1Cl | DFO2036 | 17782 | inhibitor, single point
C=C(CC)C(=O)c1ccc(OCC(=O)O)c(Cl)c1Cl | CP237 | 15848 | inhibitor, single point
C=C(CC)C(=O)c1ccc(OCC(=O)O)c(Cl)c1Cl | ATS189 | 17782 | inhibitor, single point
C=C(CC)C(=O)c1ccc(OCC(=O)O)c(Cl)c1Cl | PC15 | 11220 | inhibitor, single point
C=C(CC)C(=O)c1ccc(OCC(=O)O)c(Cl)c1Cl | CP291 | 19011 | inhibitor, single point
C=C(CC)C(=O)c1ccc(OCC(=O)O)c(Cl)c1Cl | CP215 | 16944 | inhibitor, single point
C=C(CC)C(=O)c1ccc(OCC(=O)O)c(Cl)c1Cl | DIV14 | 21331 | inhibitor, partial curve, poor fit
C=C(CC)C(=O)c1ccc(OCC(=O)O)c(Cl)c1Cl | CP211 | 7569 | inhibitor, partial curve, poor fit
C=C(CC)C(=O)c1ccc(OCC(=O)O)c(Cl)c1Cl | DIV17 | 13459 | inhibitor, single point
C=C(CC)C(=O)c1ccc(OCC(=O)O)c(Cl)c1Cl | HB3 | 12589 | inhibitor, single point
C=C(CC)C(=O)c1ccc(OCC(=O)O)c(Cl)c1Cl | JCK | 10000 | inhibitor, partial curve
C=C(CC)C(=O)c1ccc(OCC(=O)O)c(Cl)c1Cl | C2A | 10000 | inhibitor, single point
C=C(CC)C(=O)c1ccc(OCC(=O)O)c(Cl)c1Cl | TAB109 | 11220 | inhibitor, single point
C=C(CC)C(=O)c1ccc(OCC(=O)O)c(Cl)c1Cl | 3D7 | 1585 | inhibitor, full curve, poor fit
C=C(CC)C(=O)c1ccc(OCC(=O)O)c(Cl)c1Cl | CP268 | 19011 | inhibitor, single point
C=C(CC)C(=O)c1ccc(OCC(=O)O)c(Cl)c1Cl | PC26 | 6746 | inhibitor, partial curve, poor fit
C=C(CC)C(=O)c1ccc(OCC(=O)O)c(Cl)c1Cl | CP269 | 11995 | inhibitor, single point
C=C(CC)C(=O)c1ccc(OCC(=O)O)c(Cl)c1Cl | CP305 | 11995 | inhibitor, single point
C=C(CC)C(=O)c1ccc(OCC(=O)O)c(Cl)c1Cl | CP238 | 17782 | inhibitor, single point
C=C(CC)C(=O)c1ccc(OCC(=O)O)c(Cl)c1Cl | CP185 | 17782 | inhibitor, single point
C=C(CC)C(=O)c1ccc(OCC(=O)O)c(Cl)c1Cl | ATS95 | 17782 | inhibitor, single point
C=C(CC)C(=O)c1ccc(OCC(=O)O)c(Cl)c1Cl | N140 | 17782 | inhibitor, single point
C=C(CC)C(=O)c1ccc(OCC(=O)O)c(Cl)c1Cl | PAD | 11220 | inhibitor, single point
C=C(CC)C(=O)c1ccc(OCC(=O)O)c(Cl)c1Cl | CP335 | 19011 | inhibitor, single point
C=C(CC)C(=O)c1ccc(OCC(=O)O)c(Cl)c1Cl | CP203 | 21331 | inhibitor, single point
C=C(CC)C(=O)c1ccc(OCC(=O)O)c(Cl)c1Cl | SC27B | 10000 | inhibitor, single point

The last 3 entries again:

Result for C=C(CC)C(=O)c1ccc(OCC(=O)O)c(Cl)c1Cl [CP335] was fitted potency 19011 nM (inhibitor, single point).
Result for C=C(CC)C(=O)c1ccc(OCC(=O)O)c(Cl)c1Cl [CP203] was fitted potency 21331 nM (inhibitor, single point).
Result for C=C(CC)C(=O)c1ccc(OCC(=O)O)c(Cl)c1Cl [SC27B] was fitted potency 10000 nM (inhibitor, single point).

Data taken from PubChem BioAssay AID504749, deposited by NCATS (2011).